Assay results from PubChem BioAssay AID602313 (National Center for Advancing Translational Sciences (NCATS), 2012).
In all, about 390,000 compounds went through this assay and about 760 (0.19%) were called active. Inconclusive means that the source gave no clear call. Such entries were picked first, then a sample of the others. Calls come from the whole dose curve; as a rule, active = well fitted inhibition curve with a large enough effect; inconclusive = small, poorly fitted or top-dose-only effect; inactive = flat fitted curve, though single readings scatter. Where the call is inconclusive, the potency comes from a doubtful curve fit.

Assay: qHTS for Inhibitors of Vif-A3F Interactions: qHTS; note: nearly all actives have a fitted effect of over 65% in size; for activity, negative = active: % of control where 0% means no effect
Settings: HeLa A3F-eYFP + Vif (tagged APOBEC3F with the HIV-1 protein that degrades it), YFP fluorescence increase; series mostly up to 46.1 µM; activity, negative = active: at the top concentration
Summary of the method: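 HeLa cells stably expressing A3F-eYFP plus Vif, plated and incubated overnight at 37 deg C, then exposed to compounds overnight at 37 deg C. Blocked degradation read as raised yellow fluorescence (Ex 488/Em 500-530).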
Potency is the fitted concentration of half-maximal effect.

Row | SMILES | activity, negative = active | Potency
1 | O=C(Nc1c(F)cccc1F)c1ccc2c(c1)CCN2S(=O)(=O)c1ccccc1 | inactive: 2.04% | 
2 | COc1ccc2cc(-c3nc(Cl)c4c5c(sc4n3)CC(C)CC5)c(=O)oc2c1 (stereo unspecified) |  | inconclusive: 12.6 µM [inhibitor, partial curve]
3 | O=C(NCCCCCCNC(=O)c1ccccc1O)c1ccccc1O |  | inconclusive: 3.55 µM [inhibitor, single point]
4 | CC(=O)/C(C#N)=C1\NC(=O)C(Cc2ccc(C)c(Cl)c2)S1 (stereo unspecified) |  | inconclusive: 22.4 µM [inhibitor, single point]
5 | COc1ccc(C(CCN2CCCC(C)C2)c2c(OC)cc(OC)c3c(-c4ccccc4)cc(=O)oc23)cc1 (stereo unspecified) |  | inconclusive: 35.5 µM [inhibitor, single point]
6 | CC(=O)Oc1cccc(N2C(=O)c3cccc4c([N+](=O)[O-])ccc(c34)C2=O)c1 |  | inconclusive: 2.82 µM [inhibitor, partial curve, poor fit]
7 | Cc1ccc(SCC(=O)OCC(=O)NCc2cccs2)cc1C |  | inconclusive: 5.62 µM [inhibitor, single point]
8 | Cc1ccc(C(=O)O/N=C/c2c(C)nn(C)c2Cl)cc1 |  | inconclusive: 5.62 µM [inhibitor, single point]
9 | O=c1[nH]c(CN2CCN(c3ccccc3O)CC2)nc2scc(-c3ccccc3Cl)c12 | inactive: -14.3% | 
10 | Cc1cc(C)n(-c2nc(-c3ccc(Cl)c(Cl)c3)cs2)n1 | inactive: 1.97% | 
11 | O=C(Nc1nnc(SCc2cccnc2)s1)C1CC(=O)N(c2ccc(F)cc2)C1 (stereo unspecified) |  | inconclusive: 1.58 µM [inhibitor, partial curve, poor fit]
12 | CCOc1ccc2c(c1)nc(SCC(=O)c1cccs1)n2C | inactive: -7.21% | 
13 | Oc1ccc(-c2csc(Nc3ncccn3)n2)c(O)c1 |  | inconclusive: 3.16 µM [inhibitor, single point]
14 | O=C(Nc1ccccc1OC(=O)c1ccccc1)c1ccccc1 |  | inconclusive: 35.5 µM [inhibitor, single point]
15 | O=C(Cc1noc2ccccc12)NNC(=S)Nc1ccccc1 |  | inconclusive: 2.82 µM [inhibitor, partial curve, poor fit]
16 | Cc1sc(NC(=O)c2ccco2)nc1-c1ccc2c(c1)CC(C)N2C(=O)C1CC1 (stereo unspecified) | inactive: -5.16% | 
17 | Cc1ccc(C)n1-c1ccc(N2CCOCC2)c([N+](=O)[O-])c1 |  | inconclusive: 35.5 µM [inhibitor, single point]
18 | CCOc1ccccc1NC(=O)C(NCCN(C)C)c1ccccc1 (stereo unspecified) | inactive: -19.1% | 
19 | C=CCNC(=S)N/N=C/c1ccccc1OCCOc1ccccc1 |  | inconclusive: 0.355 µM [inhibitor, full curve, poor fit]
20 | CC1CCN(S(=O)(=O)c2ccc(NC(=O)Cn3nnc(-c4ccccc4F)n3)cc2)CC1 |  | inconclusive: 11.2 µM [inhibitor, partial curve]
21 | COc1ccc(Nc2nc(NCc3ccco3)nc(N/N=C/c3ccccc3)n2)cc1 | inactive: 0.126% | 
22 | CCOc1cc(C(=O)NC(=S)Nc2nc(C)cc(C)n2)cc(OCC)c1OCC |  | inconclusive: 17.8 µM [inhibitor, single point]

Row | SMILES | activity, negative = active | Potency
23 | O=C(COc1coc(CN2CCN(c3ccccc3F)CC2)cc1=O)N1CCc2ccccc21 |  | inconclusive: 5.62 µM [inhibitor, single point]
24 | Cc1[nH]c2ccccc2c1C1=CC(=O)C=CC1=O |  | inconclusive: 17.8 µM [inhibitor, partial curve, poor fit]
25 | CCCCN1C(=O)C(O)=C(C(C)=O)C1c1ccc(OC)cc1OC (stereo unspecified) | inactive: -1.24% | 
26 | CN1CCN(c2cc(=O)n(Cc3ccc(F)cc3)c(=O)[nH]2)CC1 | inactive: -10.4% | 
27 | COc1ccc(OC)c(NC(=O)c2cc(-c3cc(C)ccc3O)n[nH]2)c1 |  | inconclusive: 5.01 µM [inhibitor, single point]
28 | CCNC(=S)N/N=C/c1cc(C)ccc1C |  | inconclusive: 35.5 µM [inhibitor, single point]
29 | Cc1oc2c(cc(NS(=O)(=O)c3ccc(Br)cc3)c3ccccc32)c1C(=O)OCc1ccccc1 |  | inconclusive: 35.5 µM [inhibitor, single point]
30 | CC(Sc1nnc(-c2ccco2)n1C)C(=O)Nc1nccs1 (stereo unspecified) |  | inconclusive: 5.01 µM [inhibitor, single point]
31 | COc1ccc(N2C(=O)CS/C2=N\C(=S)Nc2ccccc2)cc1 |  | inconclusive: 22.4 µM [inhibitor, single point]
32 | CC(=Nc1ccccc1)C1=C(O)C(Cc2ccccc2)NC1=O (stereo unspecified) |  | inconclusive: 17.8 µM [inhibitor, partial curve, poor fit]
33 | CC(C)(C)c1csc(N/N=C/c2cccnc2)n1 | inactive: -1.21% | 
34 | Cn1cccc1Cc1nnc(SCC(=O)NCC2CCCO2)n1C (stereo unspecified) | inactive: -9.99% | 
35 | COc1ccc(-c2nc3ccccc3n2Cc2ccc(C(C)C)cc2)cc1 |  | inconclusive: 22.4 µM [inhibitor, single point]
36 | CCOC(=O)c1cccc(NC(=O)c2ccc(-n3cnnn3)cc2)c1 |  | inconclusive: 15.8 µM [inhibitor, single point]
37 | CC(C)(CNC(=O)c1cccc(S(=O)(=O)Nc2ccc(Br)cc2)c1)N1CCOCC1 |  | inconclusive: 35.5 µM [inhibitor, single point]
38 | CCCC(CCC)c1nc2ccncc2[nH]1 | inactive: 6.09% | 
39 | Cc1ccc(C(=O)N/N=C(\CC(C)C)c2ccccc2)cc1 |  | inconclusive: 17.8 µM [inhibitor, single point]
40 | O=[N+]([O-])c1ccc(N/N=C/c2ccc(OCc3cccc4ccccc34)cc2)nc1 |  | inconclusive: 3.98 µM [inhibitor, single point]
41 | CCOC(=O)c1c(NC(=O)COC(=O)/C=C/c2ccco2)sc2c1CC(C)(C)NC2(C)C |  | inconclusive: 35.5 µM [inhibitor, single point]
42 | Cc1ccc(Oc2ccc(OCC(=O)NC3CCS(=O)(=O)C3)cc2)cc1 (stereo unspecified) |  | inconclusive: 22.4 µM [inhibitor, single point]
43 | C#CCN(C[C@@H]1[C@@H](OC(=O)NCc2ccccc2F)[C@@H](OC(=O)NCc2ccccc2F)Cn2c(=O)n(CCCCCC)c(=O)n21)S(=O)(=O)c1ccc(C)cc1 |  | inconclusive: 22.4 µM [inhibitor, single point]
44 | O=C(NC1CCN(S(=O)(=O)c2ccc(F)cc2)CC1)c1cccnc1 | inactive: 2.59% | 

Row | SMILES | activity, negative = active | Potency
45 | C[C@H](O)[C@@H]1CN2CCc3c([nH]c4ccccc34)[C@@H]2C[C@@H]1N(C)C(=O)Nc1cc(Cl)cc(Cl)c1 |  | inconclusive: 11.2 µM [inhibitor, single point]
46 | N=c1sccn1CC(=O)NC(c1ccccc1)c1ccccc1 | inactive: -5.33% | 
47 | N/C(=N\OC(=O)CCc1ccccc1)c1cccnc1 |  | inconclusive: 11.2 µM [inhibitor, partial curve, poor fit]
48 | Cc1c(C(=O)NCc2ccc(F)cc2)oc2ccc(S(=O)(=O)N3CCOCC3)cc12 |  | inconclusive: 6.31 µM [inhibitor, single point]
49 | CN(Cc1c(F)cccc1Cl)C(=O)c1ccc(NS(=O)(=O)c2ccc3[nH]c(=O)[nH]c3c2)cc1 |  | inconclusive: 35.5 µM [inhibitor, single point]
50 | O=C(CSC(=S)N1CCCCC1)c1c(F)cccc1F |  | inconclusive: 31.6 µM [inhibitor, single point]
51 | CCOC(=O)c1cc(NC(=O)c2ccc(C)cc2)c(=O)n2c1oc1ccccc12 |  | inconclusive: 35.5 µM [inhibitor, single point]
52 | COc1cccc(C(=O)Nc2nc3c(s2)CCCC3)c1 |  | inconclusive: 35.5 µM [inhibitor, single point]
53 | COCOc1ccc(/C=C2/Oc3cc(OCOC)cc(OCOC)c3C2=O)c(OCOC)c1 | inactive: -0.897% | 
54 | O=c1cc(N2CCc3ccccc3C2)[nH]c(=O)n1Cc1ccc(F)cc1 |  | inconclusive: 35.5 µM [inhibitor, single point]
55 | CCc1ccc(-n2c(SCC(=O)NC(C)CC)nc3n[nH]c(C)c3c2=N)cc1 (stereo unspecified) | inactive: 0.657% | 
56 | COc1cc(NCCCNC(C)C)c2nccc(C)c2c1 |  | inconclusive: 5.62 µM [inhibitor, single point]
57 | CCn1c(=O)c2c(n3c(=S)[nH]nc13)-c1ccccc1CC21CCCCC1 |  | inconclusive: 17.8 µM [inhibitor, single point]
58 | O=C(NN=Cc1c(O)ccc2ccccc12)c1ccc2c(c1)OCO2 |  | active: 7.94 µM
59 | Cc1c(C(=O)OCC(C)C)[nH]c2c1C(=O)CC(c1ccco1)C2 (stereo unspecified) |  | inconclusive: 11.2 µM [inhibitor, single point]
60 | CCCCN(C)CC(O)Cn1cc(/C=C/C(=O)c2ccc(OC)c(OC)c2)c2ccccc21 (stereo unspecified) |  | inconclusive: 35.5 µM [inhibitor, single point]
61 | CCC(C)(C)n1nnnc1C(c1cc2cc(C)cc(C)c2[nH]c1=O)N1CCCC1 (stereo unspecified) | inactive: -9.4% | 
62 | O=C(CSc1nnc(-c2ccco2)o1)c1ccc([N+](=O)[O-])cc1 |  | inconclusive: 35.5 µM [inhibitor, single point]
63 | COc1ccc(/C=C/C(=O)c2cc(Br)ccc(=O)c2O)cc1 |  | inconclusive: 35.5 µM [inhibitor, single point]
64 | O=C(NC1CCCc2ccccc21)C1CCN(c2nnc(-n3cccc3)s2)CC1 (stereo unspecified) |  | inconclusive: 14.1 µM [inhibitor, single point]
65 | C=CCn1c(O)c(N=NC(=S)Nc2ccccc2C)c2cc(S(=O)(=O)N3CCOCC3)ccc21 |  | inconclusive: 0.562 µM [inhibitor, partial curve, poor fit]
66 | CC1(C)CC(=O)C=C(C(=O)N2CCCC(CCC(=O)NCc3ccccc3F)C2)O1 (stereo unspecified) |  | inconclusive: 5.62 µM [inhibitor, full curve]

Structural class, those above with a nitro group on carbon (four)
Row | SMILES | activity, negative = active | Potency
6 | CC(=O)Oc1cccc(N2C(=O)c3cccc4c([N+](=O)[O-])ccc(c34)C2=O)c1 |  | inconclusive: 2.82 µM [inhibitor, partial curve, poor fit]
17 | Cc1ccc(C)n1-c1ccc(N2CCOCC2)c([N+](=O)[O-])c1 |  | inconclusive: 35.5 µM [inhibitor, single point]
40 | O=[N+]([O-])c1ccc(N/N=C/c2ccc(OCc3cccc4ccccc34)cc2)nc1 |  | inconclusive: 3.98 µM [inhibitor, single point]
62 | O=C(CSc1nnc(-c2ccco2)o1)c1ccc([N+](=O)[O-])cc1 |  | inconclusive: 35.5 µM [inhibitor, single point]
